Data as given in PubChem BioAssay AID1159578 (Peter MacCallum Cancer Centre, 2015).

- Assay: 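Knock-downs that alter how fast lymphatic endothelial cells migrate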 (primary screen)
- Cells: human lymphatic endothelial cells
- Reagent: siRNA pool against human genes, 40 nM
- Timing: 48 h after transfection
- Read-out: 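High-content imaging of dye-stained cells in a scratch assay measures filled wound area and nuclei per well; duplicate means given as ratio to mock and robust z-score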
- Direction: migration robust z-score: higher = faster migration into the scratch; migration relative to mock: higher = more scratch area covered than mock; nuclei per well: higher = more cells in the well
- Rule for the call: 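Pools averaging fewer than 3300 nuclei are never called; remaining pools count as changed when migration robust z lies outside -2 to 2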
- Calls: active = migration changed; inactive = no migration change, or too few cells
Here is one part, drawn at random, of about 18,000 deposited reagents. About 1,030 of all reagents (5.7%) count as active. 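Inactive calls also include pools with fewer than 3300 nuclei, whose migration was not assessed.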 The raw values are shown without normalisation.

target | migration robust z-score | migration class with cell-count check | migration relative to mock | nuclei per well, duplicate mean | call
HAPLN4 | 0.38 | migration z between -2 and 2; enough cells | 0.98 | 6000 | inactive
PLGLB2 | -0.86 | migration z between -2 and 2; enough cells | 0.64 | 5900 | inactive
SEM1 | 0.13 | migration z between -2 and 2; enough cells | 0.92 | 5862 | inactive
KYNU | 0.83 | migration z between -2 and 2; enough cells | 0.96 | 5256 | inactive
SNN | 0.25 | migration z between -2 and 2; enough cells | 0.95 | 5146 | inactive
KPRP | -1.07 | migration z between -2 and 2; enough cells | 0.61 | 5898 | inactive
LPCAT4 | 1.63 | migration z between -2 and 2; enough cells | 1.29 | 5878 | inactive
ZNF385A | -0.11 | migration z between -2 and 2; enough cells | 0.86 | 6564 | inactive
SLC6A20 | -1.54 | migration z between -2 and 2; enough cells | 0.51 | 6252 | inactive
KRTAP3-3 | -0.84 | migration z between -2 and 2; enough cells | 0.66 | 5108 | inactive
DDX31 | 0.78 | migration z between -2 and 2; enough cells | 0.96 | 5198 | inactive
UBD | -0.31 | migration z between -2 and 2; enough cells | 0.74 | 6124 | inactive
TRIM64B | -1.69 | migration z between -2 and 2; enough cells | 0.48 | 4444 | inactive
KPNA6 | 0.57 | migration z between -2 and 2; enough cells | 0.92 | 6855 | inactive
GABRA6 | 0.32 | migration z between -2 and 2; enough cells | 0.86 | 5608 | inactive
POLN | -0.2 | migration z between -2 and 2; enough cells | 0.84 | 6734 | inactive
TIPRL | -0.19 | migration z between -2 and 2; enough cells | 0.84 | 4686 | inactive
IKZF2 | 0.94 | migration z between -2 and 2; enough cells | 0.99 | 5523 | inactive
SLC7A1 | 0.18 | migration z between -2 and 2; enough cells | 0.84 | 5168 | inactive
H2AX | -0.94 | migration z between -2 and 2; enough cells | 0.62 | 3808 | inactive
TNFRSF25 | 0.86 | migration z between -2 and 2; enough cells | 0.97 | 6192 | inactive
UFC1 | -0.76 | migration z between -2 and 2; enough cells | 0.66 | 3916 | inactive
EIF2B4 | 0.83 | migration z between -2 and 2; enough cells | 0.97 | 6025 | inactive
ARHGEF25 | -0.05 | migration z between -2 and 2; enough cells | 0.87 | 5666 | inactive
FNDC8 | -2.21 | migration z below -2; enough cells | 0.31 | 4984 | active
PHYHIPL | -0.9 | migration z between -2 and 2; enough cells | 0.65 | 6448 | inactive
FAM131A | -1.06 | migration z between -2 and 2; enough cells | 0.62 | 6580 | inactive
ARMC10 | -3.56 | migration z below -2; enough cells | -0.06 | 4196 | active
CLPX | 1.06 | migration z between -2 and 2; enough cells | 1.01 | 5084 | inactive
B3GALT1 | 0.34 | migration z between -2 and 2; enough cells | 0.87 | 5672 | inactive
GRID2 | 0.68 | migration z between -2 and 2; enough cells | 0.94 | 6738 | inactive
FAM177A1 | 0.02 | migration z between -2 and 2; enough cells | 0.88 | 4694 | inactive
IGF2BP2-AS1 | -0.48 | migration z between -2 and 2; enough cells | 0.76 | 7121 | inactive
RAP2C | -0.73 | migration z between -2 and 2; enough cells | 0.66 | 3828 | inactive
CLCA1 | -0.42 | migration z between -2 and 2; enough cells | 0.73 | 5082 | inactive
SEPTIN12 | 0.72 | migration z between -2 and 2; enough cells | 1.07 | 4596 | inactive
SPINK7 | -1.06 | under 3300 nuclei; migration not judged | 0.61 | 696 | inactive
SLC12A1 | -1.63 | migration z between -2 and 2; enough cells | 0.49 | 5423 | inactive
GOLGA1 | -0.32 | migration z between -2 and 2; enough cells | 0.8 | 5036 | inactive
CHD7 | 1.32 | migration z between -2 and 2; enough cells | 1.06 | 5656 | inactive
SALL2 | -0.22 | migration z between -2 and 2; enough cells | 0.82 | 5258 | inactive
SLC35D1 | 1.04 | migration z between -2 and 2; enough cells | 1 | 5228 | inactive
ZFP36L2 | -0.92 | migration z between -2 and 2; enough cells | 0.65 | 5226 | inactive
ZSCAN29 | -2.13 | migration z below -2; enough cells | 0.33 | 4164 | active
PTPN9 | 0.39 | migration z between -2 and 2; enough cells | 0.88 | 6155 | inactive
PACSIN2 | 0.36 | migration z between -2 and 2; enough cells | 0.98 | 6060 | inactive
UBE2K | -1.04 | migration z between -2 and 2; enough cells | 0.6 | 5220 | inactive
SMNDC1 | 0.15 | migration z between -2 and 2; enough cells | 0.92 | 5630 | inactive
SEPHS1 | 0.75 | migration z between -2 and 2; enough cells | 0.95 | 5289 | inactive
SEC24C | -0.09 | migration z between -2 and 2; enough cells | 0.86 | 6718 | inactive
CUX1 | 0.46 | migration z between -2 and 2; enough cells | 1 | 7581 | inactive
KLHL6 | -0.18 | migration z between -2 and 2; enough cells | 0.84 | 6676 | inactive
NEK7 | 1.48 | migration z between -2 and 2; enough cells | 1.09 | 6301 | inactive
SAP30 | 0.75 | migration z between -2 and 2; enough cells | 0.95 | 6512 | inactive
HOXA1 | 1.22 | migration z between -2 and 2; enough cells | 1.04 | 5087 | inactive
PVR | 0.91 | migration z between -2 and 2; enough cells | 0.98 | 6225 | inactive
MARCHF7 | -0.47 | migration z between -2 and 2; enough cells | 0.72 | 6200 | inactive

Part of the list above in another layout:
| target | migration robust z-score | migration class with cell-count check | migration relative to mock | nuclei per well, duplicate mean | call |
| --- | --- | --- | --- | --- | --- |
| TRIM64B | -1.69 | migration z between -2 and 2; enough cells | 0.48 | 4444 | inactive |
| KPNA6 | 0.57 | migration z between -2 and 2; enough cells | 0.92 | 6855 | inactive |
| GABRA6 | 0.32 | migration z between -2 and 2; enough cells | 0.86 | 5608 | inactive |
| POLN | -0.2 | migration z between -2 and 2; enough cells | 0.84 | 6734 | inactive |
| TIPRL | -0.19 | migration z between -2 and 2; enough cells | 0.84 | 4686 | inactive |
| IKZF2 | 0.94 | migration z between -2 and 2; enough cells | 0.99 | 5523 | inactive |
| SLC7A1 | 0.18 | migration z between -2 and 2; enough cells | 0.84 | 5168 | inactive |
